The values that follow come from article PMC5440813.

Protein sequences, listed by entry. Tags and fused reporters are not part of them. Lines headed by an entry give the natural chain unless they say otherwise; changes in a name come on top.
UniProt Q9LKA3: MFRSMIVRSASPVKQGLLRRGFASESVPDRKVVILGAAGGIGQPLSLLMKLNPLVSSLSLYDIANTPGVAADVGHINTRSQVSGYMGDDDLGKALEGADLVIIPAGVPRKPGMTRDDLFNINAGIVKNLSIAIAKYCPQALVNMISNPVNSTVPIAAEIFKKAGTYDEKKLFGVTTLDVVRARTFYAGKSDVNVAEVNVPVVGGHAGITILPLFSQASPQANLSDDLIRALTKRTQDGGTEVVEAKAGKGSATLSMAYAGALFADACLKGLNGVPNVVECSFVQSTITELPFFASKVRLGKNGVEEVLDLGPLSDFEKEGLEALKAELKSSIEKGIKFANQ
UniProt Q9ZP06: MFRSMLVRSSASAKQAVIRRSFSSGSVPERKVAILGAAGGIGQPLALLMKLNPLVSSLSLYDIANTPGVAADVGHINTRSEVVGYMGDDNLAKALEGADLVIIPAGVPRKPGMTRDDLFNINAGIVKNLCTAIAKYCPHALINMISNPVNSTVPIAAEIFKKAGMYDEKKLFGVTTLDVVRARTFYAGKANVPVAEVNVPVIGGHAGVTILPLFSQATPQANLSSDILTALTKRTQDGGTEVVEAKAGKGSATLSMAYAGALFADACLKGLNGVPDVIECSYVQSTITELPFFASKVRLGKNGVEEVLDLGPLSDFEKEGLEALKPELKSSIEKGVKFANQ
UniProt O82663: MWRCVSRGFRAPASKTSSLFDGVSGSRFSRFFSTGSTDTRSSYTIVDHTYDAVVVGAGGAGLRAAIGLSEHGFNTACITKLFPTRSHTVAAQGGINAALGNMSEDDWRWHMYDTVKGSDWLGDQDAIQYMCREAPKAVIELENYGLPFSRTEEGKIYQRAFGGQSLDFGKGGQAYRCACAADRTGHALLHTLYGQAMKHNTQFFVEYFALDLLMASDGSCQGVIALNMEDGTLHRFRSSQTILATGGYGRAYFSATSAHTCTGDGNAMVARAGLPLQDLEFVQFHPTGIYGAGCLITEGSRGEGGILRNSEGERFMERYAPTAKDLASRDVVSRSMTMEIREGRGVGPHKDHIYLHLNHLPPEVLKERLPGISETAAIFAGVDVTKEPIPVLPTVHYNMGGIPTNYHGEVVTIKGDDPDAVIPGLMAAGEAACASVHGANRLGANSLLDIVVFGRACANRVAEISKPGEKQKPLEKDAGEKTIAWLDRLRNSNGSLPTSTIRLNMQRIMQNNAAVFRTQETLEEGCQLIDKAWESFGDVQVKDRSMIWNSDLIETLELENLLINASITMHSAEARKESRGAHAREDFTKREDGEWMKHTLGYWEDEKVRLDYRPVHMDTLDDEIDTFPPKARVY
UniProt P93033: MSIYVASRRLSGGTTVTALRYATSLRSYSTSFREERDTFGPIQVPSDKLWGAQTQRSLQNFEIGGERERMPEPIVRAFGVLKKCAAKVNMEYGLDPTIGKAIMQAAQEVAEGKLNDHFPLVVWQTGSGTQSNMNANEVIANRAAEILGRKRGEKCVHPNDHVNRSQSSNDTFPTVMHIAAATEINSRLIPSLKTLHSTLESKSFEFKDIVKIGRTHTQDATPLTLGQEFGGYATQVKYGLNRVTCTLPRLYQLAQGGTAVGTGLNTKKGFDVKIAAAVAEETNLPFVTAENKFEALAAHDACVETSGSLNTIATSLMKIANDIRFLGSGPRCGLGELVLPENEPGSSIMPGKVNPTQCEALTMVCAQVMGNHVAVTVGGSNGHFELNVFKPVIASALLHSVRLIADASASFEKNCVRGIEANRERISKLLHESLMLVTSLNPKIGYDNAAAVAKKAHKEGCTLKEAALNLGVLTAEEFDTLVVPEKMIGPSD

Experiment [1] addresses T1, succinate dehydrogenase (SDH) subunit SDH2-3 (Arabidopsis thaliana) (UniProt Q9FJP9).
T1 sequence: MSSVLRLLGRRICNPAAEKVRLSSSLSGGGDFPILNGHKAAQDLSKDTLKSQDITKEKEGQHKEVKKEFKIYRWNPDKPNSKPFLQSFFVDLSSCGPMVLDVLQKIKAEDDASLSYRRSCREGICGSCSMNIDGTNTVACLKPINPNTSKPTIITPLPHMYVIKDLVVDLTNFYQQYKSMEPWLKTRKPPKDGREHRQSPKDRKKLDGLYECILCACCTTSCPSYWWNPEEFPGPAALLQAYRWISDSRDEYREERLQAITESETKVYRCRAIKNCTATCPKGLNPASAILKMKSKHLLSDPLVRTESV
Kind of experiment: affinity purification with mass spectrometry; C-terminal GFP-tagged bait expressed in PSB-D Arabidopsis cell culture; extract (25 mM Tris-HCl pH 7.5, 15 mM MgCl2, 5 mM EGTA, 0.1% NP40) on GFP-Trap_A beads 1 h at 4 °C, washes with 0, 250 and 500 mM NaCl; LC-MS/MS, FC-A score (SAINT); positive: top 10% of scores (3.9).

Experiment [2] concerns the target T2, succinate dehydrogenase (SDH) subunit SDH4 (Arabidopsis thaliana) (UniProt Q941A0).
T2 sequence: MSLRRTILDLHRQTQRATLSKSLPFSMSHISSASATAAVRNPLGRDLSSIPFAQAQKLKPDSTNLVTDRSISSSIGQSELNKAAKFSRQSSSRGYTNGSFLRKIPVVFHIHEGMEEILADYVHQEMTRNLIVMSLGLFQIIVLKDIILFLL
Kind of experiment: affinity purification with mass spectrometry + split reporter + two-hybrid; compromise score that integrates the AP-MS, split-LUC and Y2H data of the 38 x 38 screen (STATIS-like); interaction: compromise score above the threshold of about 0.6.

The target in experiment [3] is T3, succinate dehydrogenase (SDH) subunit SDH2-2 (Arabidopsis thaliana) (UniProt Q8LB02).
T3 sequence: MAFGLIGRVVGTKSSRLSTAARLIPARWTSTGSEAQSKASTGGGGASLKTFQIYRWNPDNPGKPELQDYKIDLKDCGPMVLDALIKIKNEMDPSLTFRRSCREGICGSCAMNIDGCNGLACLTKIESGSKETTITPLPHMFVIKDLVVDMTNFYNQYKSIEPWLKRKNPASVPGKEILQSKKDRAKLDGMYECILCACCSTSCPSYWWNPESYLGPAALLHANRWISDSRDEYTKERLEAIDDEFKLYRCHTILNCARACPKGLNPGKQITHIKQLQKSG
Described as above.

Experiment [4] concerns the target T4, isocitrate dehydrogenase (IDH) subunit IDH1 (Arabidopsis thaliana) (UniProt Q8LFC0).
T4 sequence: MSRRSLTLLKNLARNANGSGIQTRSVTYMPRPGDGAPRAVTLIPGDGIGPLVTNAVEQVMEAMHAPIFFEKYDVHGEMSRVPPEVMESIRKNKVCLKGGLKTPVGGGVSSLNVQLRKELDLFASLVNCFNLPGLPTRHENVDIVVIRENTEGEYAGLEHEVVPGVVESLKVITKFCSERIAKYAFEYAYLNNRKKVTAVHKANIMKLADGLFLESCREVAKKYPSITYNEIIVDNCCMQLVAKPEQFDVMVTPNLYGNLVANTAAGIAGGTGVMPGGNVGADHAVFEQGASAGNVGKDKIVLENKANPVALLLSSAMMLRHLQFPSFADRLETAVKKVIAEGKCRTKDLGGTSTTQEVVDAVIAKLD
Kind of experiment: affinity purification with mass spectrometry; C-terminal GFP-tagged bait expressed in PSB-D Arabidopsis cell culture; extract (25 mM Tris-HCl pH 7.5, 15 mM MgCl2, 5 mM EGTA, 0.1% NP40) on GFP-Trap_A beads 1 h at 4 °C, washes with 0, 250 and 500 mM NaCl; LC-MS/MS, FC-A score (SAINT); positive: top 10% of scores (3.9).

The target in experiment [5] is malate dehydrogenase (MDH) 2 (Arabidopsis thaliana) (UniProt Q9LKA3). The experiment in a line: affinity purification with mass spectrometry + split reporter + two-hybrid; compromise score that integrates the AP-MS, split-LUC and Y2H data of the 38 x 38 screen (STATIS-like); interaction: compromise score above the threshold of about 0.6.
Experiment [6] has as its target malate dehydrogenase (MDH) 1 (Arabidopsis thaliana) (UniProt Q9ZP06). Described as above.
Experiment [7] deals with succinate dehydrogenase (SDH) subunit SDH1-1 (Arabidopsis thaliana) (UniProt O82663). The description is as above.
The target in experiment [8] is succinyl-CoA ligase (SCoAL) regulatory subunit SCoALb (Arabidopsis thaliana). Described as above.
Experiment [9] has as its target T5, citrate synthase (CSY) 4 (Arabidopsis thaliana) (UniProt P20115).
T5 sequence: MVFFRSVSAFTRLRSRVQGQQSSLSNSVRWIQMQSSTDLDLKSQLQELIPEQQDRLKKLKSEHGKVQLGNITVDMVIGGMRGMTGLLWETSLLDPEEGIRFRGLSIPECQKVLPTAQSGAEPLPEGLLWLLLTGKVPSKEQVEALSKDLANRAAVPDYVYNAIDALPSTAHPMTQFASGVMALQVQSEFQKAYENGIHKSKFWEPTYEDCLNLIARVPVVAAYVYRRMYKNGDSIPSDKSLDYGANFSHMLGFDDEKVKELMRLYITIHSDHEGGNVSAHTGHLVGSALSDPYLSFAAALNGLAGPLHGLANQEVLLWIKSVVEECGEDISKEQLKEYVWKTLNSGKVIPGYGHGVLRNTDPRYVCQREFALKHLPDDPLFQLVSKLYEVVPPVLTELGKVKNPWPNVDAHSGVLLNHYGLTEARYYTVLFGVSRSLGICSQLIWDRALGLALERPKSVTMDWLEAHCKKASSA
The description is as above.

These are yes or no findings as the source states them, for the method shown. In cells and extracts the contact can be indirect. Here binding means that the protein was enriched with, or labelled near, the bait; the list need not be complete. For part of these data: A no says only that the protein was not detected with the bait.

Take “succinate dehydrogenase (SDH) subunit SDH1-1 (from UniProt O82663 1-634) (enzyme)”: in [1], the binding result is listed as “binds”.

As for “succinyl-CoA ligase (SCoAL) regulatory subunit SCoALb (Arabidopsis thaliana)”, the binding entry in experiment [2] and in experiment [3] was “binds” throughout.

Regarding “fumarase (FUM) 1 (from UniProt P93033 1-492) (enzyme)”, the binding entry in experiment [4] was “no binding”; in [5], “binds”; in experiment [6], “no binding”; in [7] it was “no binding”.

B1: lipoamide dehydrogenase (LPD) 2 (enzyme, UniProt Q9M5K2 1-507)
chain: MAMASLARRKAYFLTRNISNSPTDAFRFSFSLTRGFASSGSDDNDVVIIGGGPGGYVAAIKAAQLGLKTTCIEKRGALGGTCLNVGCIPSKALLHSSHMYHEAKHVFANHGVKVSSVEVDLPAMLAQKDTAVKNLTRGVEGLFKKNKVNYVKGYGKFLSPSEVSVDTIDGENVVVKGKHIIVATGSDVKSLPGITIDEKKIVSSTGALSLTEIPKKLIVIGAGYIGLEMGSVWGRLGSEVTVVEFAADIVPAMDGEIRKQFQRSLEKQKMKFMLKTKVVGVDSSGDGVKLIVEPAEGGEQTTLEADVVLVSAGRTPFTSGLDLEKIGVETDKGGRILVNERFSTNVSGVYAIGDVIPGPMLAHKAEEDGVACVEFIAGKHGHVDYDKVPGVVYTYPEVASVGKTEEQLKKEGVSYNVGKFPFMANSRAKAIDTAEGMVKILADKETDKILGVHIMSPNAGELIHEAVLAINYDASSEDIARVCHAHPTMSEAIKEAAMATYDKPIHM
Regarding B1, the binding entry in experiment [8] and in [9] was “binds” each time.
